For this experiment, the target named is SH3 domain of Abl (TransSignal SH3 Domain Array1, spots D 3, 4) (UniProt P00519). Put plainly: peptide or protein array; TransSignal SH3 Domain Array1 membrane (Panomics), SH3 domains spotted in duplicate, incubated with purified Tat-Apoptin; high stringency; chemiluminescence on film; both purified.

Chains of the proteins cited; added tags and fusions are not shown. Residues count along the entry.
UniProt P00519, residues 61-121: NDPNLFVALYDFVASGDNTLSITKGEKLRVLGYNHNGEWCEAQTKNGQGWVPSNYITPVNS

1 molecule from PMC4196195 can be followed below.

These are yes or no findings as the source states them, for the method shown. Some results given as binding are weak or reduced against the parent protein; the word gives no strength.

B1: Tat-Apoptin (protein, UniProt Q99152 1-121)
chain: MNALQEDTPPGPSTVFRPPTSSRPLETPHCREIRIGIAGITITLSLCGCANARAPTLRSATADNSESTGFKNVPDLRTDQPKPPSKKRSCDPSEYRVSELKESLITTTPSRPRTAKRRIRL
B1: the binding result is listed as “binds”.
